# Values quoted from earlier work as cited in patent US8828934B2, “Mnk kinase homologous proteins involved in the regulation of energy homeostasis and organelle metabolism” (Boehringer Ingelheim International GmbH, priority 2001, dated 2014).
# At least one compound was matched to its structure with a doubt left.
smiles,measurement,value
Nc1ncnc2n[nH]c(Nc3ccc(F)cc3)c12 [CGP57380],cytotoxicity (in words),non cytotoxic
